Laboratory results reported in PubChem BioAssay AID540256 (National Center for Advancing Translational Sciences (NCATS), 2011).
Out of some 300,000 compounds screened, about 3,700 (1.2%) were called active. The inconclusive results got no clear call from the source; some entries with a clear call stand among them for comparison. Calls follow the shape of the full dose curve; tested in HEK293 cells. Potencies of inconclusive entries are doubtful fits and often do not repeat.

Assay: qHTS for Inhibitors of binding or entry into cells for Lassa Virus; also: nearly all actives have a fitted effect of over 50% in size
Details: Lassa virus pseudotype entry inhibition, cell reporter; activity change, negative = inhibition: at 37.9 µM (top of the series) unless noted
% is scaled to controls: 0 for no effect and ±100 for the full control effect; potency is read from the fitted curve at half-maximal effect.

Row | Structure (SMILES) | Potency | activity change, negative = inhibition
1 | CC(C)(C)n1nnnc1C(c1cccs1)N1CCN(c2ccccc2)CC1 (stereo not given) | inconclusive: 3.16 µM [inhibitor, full curve] | –
2 | Cc1occc1C(=O)NNC(=S)NC(=O)COc1ccc(Cl)cc1Cl | inactive | –
3 | COc1ccc(N(CC(=O)N2CCN(C)CC2)S(=O)(=O)c2cc(C)ccc2OC)cc1Cl | inactive | –
4 | CCCNC(=O)c1ccccc1NC(=O)C1COc2ccccc2O1 (stereo not given) | inconclusive: 15.8 µM [inhibitor, single point] | –
5 | CN(C(=O)c1ccc(-c2ccccc2)cc1)C1CCCCC1 | inconclusive: 35.5 µM [inhibitor, single point] | –
6 | Cc1cc(C(=O)Nc2ccc3c(c2)CCC3)ccc1[N+](=O)[O-] | inconclusive: 0.562 µM [activator, full curve, poor fit] | –
7 | CCN(CC)C(=O)c1ccc(C(=O)c2ccccc2)cc1 | inconclusive: 29.1 µM [activator, single point] | –
8 | COCCN(C(=S)Nc1cccc(OC)c1)C1CCN(C(C)C)CC1 | inactive | –
9 | COc1ccc(OC)c(S(=O)(=O)n2nc(C)cc2C)c1 | inconclusive: 20.6 µM [activator, partial curve, poor fit] | –
10 | CCCn1nnc(NC(=O)c2cccc(OCc3ccccc3)c2)n1 | inactive | –
11 | O=C1NC(c2ccccc2)=N/C1=C/c1ccco1 | inconclusive: 35.5 µM [inhibitor, single point] | –
12 | Cc1ccc(C(=O)N2CCN(C(=O)c3ccccc3)C2c2ccc(N(C)C)cc2)cc1 (stereo not given) | inconclusive: 0.731 µM [inhibitor, full curve, poor fit] | –
13 | CC(=O)c1ccc(N(CC(=O)NC2CCCC2)C(=O)CNC(=O)c2ccco2)cc1 | inconclusive: 6.31 µM [inhibitor, single point] | –
14 | COc1ccc2cc(C(C)C(=O)Nc3cccc(S(=O)(=O)N(C)C)c3)ccc2c1 (stereo not given) | inconclusive: 28.2 µM [inhibitor, single point] | –
15 | Cc1ccnc2nc(C(=O)OCC(=O)Nc3ccc4c(c3)OCCO4)nn12 | inactive | –
16 | Cc1ccc(S(=O)(=O)N2CCOCC2)cc1NC(=O)COC(=O)c1cnc(Cl)c(Cl)c1 | – | inconclusive: 7.65% [activator]
17 | CCCN1C2CCCC1CC(NC(=O)c1cc(OC)c(OC)c(OC)c1)C2 (stereo not given) | inactive | –
18 | CCc1ccc(NS(=O)(=O)c2ccc3[nH]cc(C(=O)NCCc4cccc(C)c4)c(=O)c3c2)cc1 | inactive | –
19 | COc1ccc2c(c1)C(=O)CC(O)(C(F)F)O2 (stereo not given) | inconclusive: 35.5 µM [inhibitor, single point] | –
20 | Cc1cccc2sc(N(CCN3CCOCC3)C(=O)CCS(=O)(=O)c3ccccc3)nc12 | inconclusive: 22.4 µM [inhibitor, single point] | –
21 | CC(C)[N+](C)(C)CC(O)CN(c1ccccc1)c1ccccc1 (stereo not given) | inconclusive: 2.51 µM [inhibitor, partial curve, poor fit] | –
22 | CCOCCCNC(=O)C(c1ccc(OC)cc1)N(Cc1ccc2c(c1)OCO2)C(=O)c1ccc(NC(C)=O)cc1 (stereo not given) | inconclusive: 31.6 µM [inhibitor, single point] | –
23 | CC(C(=O)Nc1nc(-c2ccc(F)cc2)cs1)N1C(=O)C2CC=CCC2C1=O (stereo not given) | inactive | –

Row | Structure (SMILES) | Potency | activity change, negative = inhibition
24 | CCN(CC)CCN1C(=O)C(=O)/C(=C(/O)c2cnn(-c3ccccc3)c2C)C1c1ccc(C)o1 (stereo not given) | inconclusive: 18.3 µM [activator, single point] | –
25 | CCn1nc(C)c(NC(=O)CC23CC4CC(CC(C4)C2)C3)c1C | inconclusive: 5.62 µM [activator, single point] | –
26 | CC(C)Cc1nnc(NC(=O)CSc2nc(O)c(-c3ccccc3)c(=O)[nH]2)s1 | inconclusive: 35.5 µM [inhibitor, single point] | –
27 | Cc1cccc(S(=O)(=O)Nc2ccc3c(c2)OCCO3)c1 | inconclusive: 6.51 µM [inhibitor, single point] | –
28 | COc1ccc(C(=O)Nc2ccccc2N2CCN(C(=O)C(C)C)CC2)cc1Cl | inconclusive: 14.1 µM [inhibitor, single point] | –
29 | CCCCN1C(=O)c2[nH]nc(-c3ccccc3O)c2C1c1cc(Br)c(O)c(OC)c1 (stereo not given) | inconclusive: 3.55 µM [inhibitor, partial curve] | –
30 | Cc1ccc(S(=O)(=O)NCC(=O)N/N=C/c2ccccc2O)cc1 | active: 7.3 µM | –
31 | Cc1ccc(CN2CCSc3ccc(C(=O)N4CCN(c5ccc(Cl)cc5)CC4)cc32)cc1 | inactive | –
32 | CCOc1cc2[nH]c(=O)n(Cc3ccc(C(=O)NCCCN4CCCC4=O)cc3)c(=O)c2cc1OCC | inconclusive: 35.5 µM [activator, single point] | –
33 | COc1cccc(Oc2cc(Cl)nc(N)n2)c1 | inconclusive: 15.8 µM [activator, partial curve, poor fit] | –
34 | CCNCc1cc(Cl)c(OCc2ccccc2)c(OCC)c1 | inconclusive: 35.5 µM [inhibitor, single point] | –
35 | CCCOC(=O)Nc1cccc(C(C)=O)c1 | inactive | –
36 | COc1ccc(N2CCN(C(c3cccs3)C(C)NS(=O)(=O)c3ccccc3)CC2)cc1 (stereo not given) | inconclusive: 35.5 µM [inhibitor, single point] | –
37 | CCOC(=O)c1ccc(NC(=O)C2(c3ccc(OC)cc3)CCCC2)cc1 | active: 11.2 µM | –
38 | CCOC(=O)c1ccc(Oc2nc(NC(C)(C)C)nc(N(C)C)n2)cc1 | inconclusive: 11.2 µM [inhibitor, partial curve, poor fit] | –
39 | CCOc1ccc(NC(=O)CSc2nnc(CNC(=O)c3cccs3)o2)cc1 | inactive | –
40 | C/C(=N\NC(=O)c1ccc(Cl)cc1)c1cccs1 | active: 3.55 µM | –
41 | O=C(Nc1nc2ccccc2[nH]1)c1ccc(Cl)cc1 | active: 2.51 µM | –
42 | CCOC(=O)C(Oc1ccc2c(-c3ccc(OC)cc3)cc(=O)oc2c1C)c1ccccc1 (stereo not given) | active: 13 µM | –
43 | Cc1ccc(CNc2nc(C)c(C(=O)N(C)C)s2)cc1 | inactive | –
44 | CCN(CC)CCCN=Cc1c(O)n(CCc2ccc(OC)c(OC)c2)c(=O)[nH]c1=O | inactive | –
45 | Cc1ccnc(NC(=O)CCNC(=O)c2ccccc2Cl)c1 | inactive | –

Complete entries, looked up by structure. Order of values: Potency | activity change, negative = inhibition
O=C(Nc1nc2ccccc2[nH]1)c1ccc(Cl)cc1 is listed as active: 2.51 µM | –
CCCCN1C(=O)c2[nH]nc(-c3ccccc3O)c2C1c1cc(Br)c(O)c(OC)c1 (stereo not given) is listed as inconclusive: 3.55 µM [inhibitor, partial curve] | –
CCN(CC)CCN1C(=O)C(=O)/C(=C(/O)c2cnn(-c3ccccc3)c2C)C1c1ccc(C)o1 (stereo not given) is listed as inconclusive: 18.3 µM [activator, single point] | –
